Assay: Measurement of oxidation induction time (OIT) by DSC
Settings: substance together with polymer LIR-50 (Kuraray), isothermal 180° C., switch from N2 to O2 atmosphere (50 mL/min), oxidation peak by DSC; measurement accuracy ± 10 minutes

SMILES	Time (time in minutes to oxidation, oxidation induction time) [min]
CC(C)CC(C)Nc1ccc(Nc2ccccc2)cc1 (centres unmarked) [6-PPD, N-(1,3-dimethylbutyl)-N′-phenyl-p-phenylenediamine]	116 ± 10
CC(C)CC(C)Nc1ccc2[nH]c3c(c(=O)c2c1)CCCC3 (centres unmarked) [7-((4-methylpentan-2-yl)amino)-1,3,4,10-tetrahydroacridin-9(2H)-one]	212 ± 10

— patent publication US20240368086A1, “COMPOUND, RUBBER BLEND CONTAINING THE COMPOUND, VEHICLE TIRE COMPRISING THE RUBBER BLEND IN AT LEAST ONE COMPONENT, PROCESS FOR PRODUCING THE COMPOUND, AND USE OF THE COMPOUND AS AN AGEING PROTECTANT AND/OR ANTIOZONANT AND/OR DYE” (Continental Reifen Deutschland GmbH, priority 2021, published 2024)
